Primary screen of a compound library

Protein sequences, listed by entry. Tags and fused reporters are not part of them. Residues count along the entry.
UniProt A4I591, 1-473: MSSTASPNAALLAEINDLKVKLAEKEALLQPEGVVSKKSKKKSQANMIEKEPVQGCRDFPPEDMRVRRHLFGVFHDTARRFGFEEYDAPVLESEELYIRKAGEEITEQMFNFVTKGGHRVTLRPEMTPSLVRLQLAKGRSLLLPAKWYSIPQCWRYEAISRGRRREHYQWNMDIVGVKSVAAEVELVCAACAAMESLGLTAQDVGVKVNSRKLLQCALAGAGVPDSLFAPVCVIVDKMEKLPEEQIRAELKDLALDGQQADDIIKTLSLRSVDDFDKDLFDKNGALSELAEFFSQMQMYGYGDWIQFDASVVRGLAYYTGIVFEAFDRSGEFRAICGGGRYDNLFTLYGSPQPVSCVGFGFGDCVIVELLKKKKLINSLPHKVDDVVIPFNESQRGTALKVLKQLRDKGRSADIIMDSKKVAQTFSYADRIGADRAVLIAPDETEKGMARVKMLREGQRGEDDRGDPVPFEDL
UniProt P9WNZ1, whole entry: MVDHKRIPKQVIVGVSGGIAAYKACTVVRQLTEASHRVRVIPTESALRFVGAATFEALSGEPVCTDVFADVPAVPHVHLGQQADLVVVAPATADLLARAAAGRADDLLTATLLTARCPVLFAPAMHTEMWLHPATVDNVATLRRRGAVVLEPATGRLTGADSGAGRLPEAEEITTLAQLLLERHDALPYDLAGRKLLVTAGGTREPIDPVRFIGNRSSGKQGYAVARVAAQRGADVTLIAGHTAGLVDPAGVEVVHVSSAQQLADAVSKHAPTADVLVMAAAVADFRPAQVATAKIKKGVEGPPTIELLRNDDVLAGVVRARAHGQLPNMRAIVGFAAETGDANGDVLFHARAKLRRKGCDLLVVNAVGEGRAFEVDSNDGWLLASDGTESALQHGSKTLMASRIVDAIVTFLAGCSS
UniProt Q8IDJ8, 1-583: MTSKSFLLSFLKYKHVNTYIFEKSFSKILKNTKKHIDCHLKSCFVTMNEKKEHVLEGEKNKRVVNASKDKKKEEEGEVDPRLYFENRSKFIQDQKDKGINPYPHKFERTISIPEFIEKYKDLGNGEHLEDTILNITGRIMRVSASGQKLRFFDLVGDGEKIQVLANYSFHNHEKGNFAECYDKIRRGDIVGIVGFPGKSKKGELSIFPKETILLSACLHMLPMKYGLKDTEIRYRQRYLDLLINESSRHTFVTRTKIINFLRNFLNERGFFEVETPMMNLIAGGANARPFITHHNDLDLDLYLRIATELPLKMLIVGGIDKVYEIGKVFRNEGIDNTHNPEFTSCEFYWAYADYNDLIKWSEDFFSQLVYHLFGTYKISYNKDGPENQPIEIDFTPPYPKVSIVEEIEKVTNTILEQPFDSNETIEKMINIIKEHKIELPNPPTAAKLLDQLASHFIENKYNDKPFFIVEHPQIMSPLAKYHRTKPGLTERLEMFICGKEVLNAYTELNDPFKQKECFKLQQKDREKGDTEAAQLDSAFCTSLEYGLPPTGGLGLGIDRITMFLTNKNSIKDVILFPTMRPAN
UniProt P9WFT3, whole entry: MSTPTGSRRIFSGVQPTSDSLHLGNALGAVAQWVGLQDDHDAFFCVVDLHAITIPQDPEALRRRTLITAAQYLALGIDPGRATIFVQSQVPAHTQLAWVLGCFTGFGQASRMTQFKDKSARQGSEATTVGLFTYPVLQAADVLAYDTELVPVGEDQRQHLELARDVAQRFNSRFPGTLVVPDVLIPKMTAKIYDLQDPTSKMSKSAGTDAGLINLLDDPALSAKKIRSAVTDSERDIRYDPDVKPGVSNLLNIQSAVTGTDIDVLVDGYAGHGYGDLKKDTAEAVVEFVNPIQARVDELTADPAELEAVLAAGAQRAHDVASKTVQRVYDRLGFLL

A: 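Histidine-tRNA ligase, Leishmania infantum (UniProt A4I591). Enzyme assay of histidyl-tRNA synthetase; the read-out is not stated. Concentration: 30 µM. Higher reads as stronger inhibition (inferred: compounds with an IC50 in retests scored well above the rest). The assay is labelled LdHisRS but filed under L. infantum. Of about 69,000 compounds tested this way, about 410 (0.6%) reached 50% or more in at least one test.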
B: 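Enzyme assay of CoaBC with a phosphate dye (Biomol Green) read at 650 nm. Target: Coenzyme A biosynthesis protein CoaBC, Mycobacterium tuberculosis (UniProt P9WNZ1). Concentration: 30 µM. Direction is inferred from only a few compounds that gave an IC50; most scored high, so higher reads as stronger inhibition. Most strong results did not repeat in a second test. Size under these conditions: about 67,000 compounds, about 40 of them at 50% or above in at least one test.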
C: 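Enzyme assay of the cytosolic lysyl-tRNA synthetase in 384-well plates, read by luminescence. Target: Lysine-tRNA ligase, Plasmodium falciparum 3D7 (UniProt Q8IDJ8). Concentration: 30 µM. Direction is inferred from only a few compounds that gave an IC50; most scored high, so higher reads as stronger inhibition. Size under these conditions: about 69,000 compounds, about 49 of them at 50% or above in at least one test.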
D: 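Enzyme assay of tryptophanyl-tRNA synthetase; the read-out is not stated. Target: Tryptophan-tRNA ligase, Mycobacterium tuberculosis (UniProt P9WFT3). Tested at 10 µM. Direction is not recorded; retested compounds ran higher, which suggests that high means inhibition. Of about 65,000 compounds tested this way, about 64 (0.098%) reached 50% or more in at least one test.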

The filed quantity is “Percent Effect” (%). How 0% and 100% were set is not recorded. Most values in the screen are low, and negative values occur. This is an unselected part of the compounds tested.

Result for CCOc1ccnc(NCc2nc(C)cc(=O)[nH]2)n1 was A: 13.7%; B: 16.38%; C: 1.381%; D: -1.639%. For OCCN1CCCCC1c1cc[nH]n1 (centres unmarked) the result was A: 9.929%; B: 17.72%; C: -1.129%; D: 1.795%. With Cc1ccn(CCC(=O)N2CCCC(Cc3cccnc3)C2)n1 (centres unmarked) the screen gave A: 10.14%; B: -2.67%; C: 3.285%. For Cc1cnn(CC2CCN(CC(O)c3ccccc3F)CC2)c1 (centres unmarked) the result was A: 11.84%; B: -4.516%; C: 4.368%; D: -0.8227%.

CCS(=O)(=O)N1CC[C@@H]2[C@H](CC1)N(CC(C)C)CCS2(=O)=O read A: 10.53%; B: -4.44%; C: 3.285%; D: -4.863%. With O=C(CN1CCc2sccc2C1)Nc1ccnc2ccnn12 the screen gave A: 26.83%; B: -2.417%; C: 2.908%; D: -2.376%. Cc1cc(C(=O)NC2(C#N)CCSCC2)n(C)n1 read A: 20%; C: 2.446%; D: -5.263%. Cc1cnn(CCNCc2nc(-c3ccccn3)no2)c1 gave A: 18.18%; B: 10.46%; C: 0.3823%; D: -3.483%.

Result for COCCNC(=O)C1CC(=O)N(c2n[nH]c3cccc(F)c23)C1 (centres unmarked) was A: 15.79%; B: 1.263%; C: 4.534%; D: 2.311%. O=C(CSCC1CC1)N1C[C@@H]2CC[C@H](C1)N(Cc1ccccn1)C2=O read A: 9.836%; B: 1.288%; C: -1.101%; D: -3.606%. CCOc1ccc(NC(C)=O)cc1S(=O)(=O)Nc1cc(C)on1 gave A: 12.36%; B: -3.646%; C: 4.804%; D: 2.184%. O=C(c1cocn1)N1C[C@@H]2CN(CC3CC3)CCO[C@@H]2C1 gave A: 7.563%; B: -5.691%; C: 7.046%; D: -5.5%.

Result for CCNC(=O)N1CC[C@H]2CC(=O)N(CC(N)=O)CC[C@H]2C1 was A: 11.11%; B: -1.129%; C: 6.69%; D: -6.551%. With Fc1cccc(CN2CCC3(CCCN3c3ncccn3)CC2)c1 the screen gave A: 13.21%; B: 2.683%; C: 3.655%. Cc1cc(NC(=O)CN2CCc3cncnc3C2)on1 read A: 14.29%; B: 12.5%; C: 1.054%; D: 2.855%. With Cc1ncoc1C(=O)N1C[C@H]2CCC[C@@]2(COCC2CCOCC2)C1 the screen gave A: 7.519%; B: 3.599%; C: 2.503%; D: -1.657%.

Cc1ccc(N2CCCC(NCC(=O)NC(C3CC3)C3CC3)C2)nn1 (centres unmarked) read A: 17.54%; B: -5.839%; C: -1.212%; D: -0.9938%. CO[C@@]1(C)C[C@@H](O)C12CCN(C(=O)CCn1c(C)cccc1=O)CC2 gave A: 10%; B: -1.844%; C: 6.878%; D: 1.444%. Cc1ccc(N2CC[C@H]3O[C@H](C(=O)N4CCCCO4)CC[C@H]32)nn1 gave A: 20.75%; B: 0.9756%; C: 2.703%. With Cc1[nH]nc2ncc(C(=O)N3CCN(CCC(C)C)CC3)cc12 the screen gave A: 6.14%; B: 6.91%; C: -3.254%; D: 15.5%.

With N#Cc1ccc(CSCCN2CCOCC2)cc1 the screen gave A: 7.463%; B: -11.65%; C: 3.211%; D: -0.6369%.

Once more, the final 2:

SMILES	A	B	C	D
Cc1[nH]nc2ncc(C(=O)N3CCN(CCC(C)C)CC3)cc12	6.14%	6.91%	-3.254%	15.5%
N#Cc1ccc(CSCCN2CCOCC2)cc1	7.463%	-11.65%	3.211%	-0.6369%

From ChEMBL document CHEMBL3988442, “University of Dundee, Small-Polar-MMV Screening Library” (2021).